No constants are given. Whether binding was seen depends on the method and setting. In cells and extracts the contact can be indirect. Some entries that bind do so weakly or less than the wild type.
Experiments:
[1] = target: T1, stathmin (mouse (endogenous in sciatic nerve)) (UniProt P54227); experiment: co-IP; anti-stathmin (rabbit) antibody and Protein A-agarose on sciatic nerve lysates of 34-day-old wild-type, Nefl-/-, pmn and Nefl-/-;pmn mice; IP buffer 50 mM Tris pH 7.4, 150 mM NaCl, 1 % Triton X-100, 2 mM EDTA; overnight at 4 °C; blots for stathmin, Stat3 and NFL; IgG control
T1 sequence: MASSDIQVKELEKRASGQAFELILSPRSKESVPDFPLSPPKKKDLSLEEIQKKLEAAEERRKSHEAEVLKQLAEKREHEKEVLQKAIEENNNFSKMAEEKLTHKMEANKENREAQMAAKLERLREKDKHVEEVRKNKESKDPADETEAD

Protein sequences, listed by entry. Tags and fused reporters are not part of them.
UniProt P42227: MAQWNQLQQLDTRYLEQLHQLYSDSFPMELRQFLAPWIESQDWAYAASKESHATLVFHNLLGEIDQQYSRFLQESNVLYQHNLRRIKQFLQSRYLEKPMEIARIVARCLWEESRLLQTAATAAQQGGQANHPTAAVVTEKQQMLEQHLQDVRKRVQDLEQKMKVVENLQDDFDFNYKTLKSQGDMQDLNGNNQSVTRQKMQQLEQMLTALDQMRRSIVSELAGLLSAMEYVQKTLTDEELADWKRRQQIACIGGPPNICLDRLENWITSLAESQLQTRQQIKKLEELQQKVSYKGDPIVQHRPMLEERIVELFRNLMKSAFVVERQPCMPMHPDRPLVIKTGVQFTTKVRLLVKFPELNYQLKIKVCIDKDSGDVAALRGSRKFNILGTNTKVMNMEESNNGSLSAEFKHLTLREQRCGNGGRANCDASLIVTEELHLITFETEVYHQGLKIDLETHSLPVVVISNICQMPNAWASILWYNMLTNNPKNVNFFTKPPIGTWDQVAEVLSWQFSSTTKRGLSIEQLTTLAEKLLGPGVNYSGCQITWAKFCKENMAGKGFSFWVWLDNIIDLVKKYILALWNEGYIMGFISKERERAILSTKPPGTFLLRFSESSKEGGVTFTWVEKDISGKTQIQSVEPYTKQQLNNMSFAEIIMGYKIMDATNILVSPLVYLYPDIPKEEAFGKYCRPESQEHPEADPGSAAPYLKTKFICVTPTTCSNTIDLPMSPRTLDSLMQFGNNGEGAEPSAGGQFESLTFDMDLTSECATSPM

[2] = target: T2, stathmin (mouse (endogenous in NSC34)) (UniProt P54227); experiment: co-IP; anti-stathmin (rabbit) antibody and Protein A-agarose on NSC34 cell lysates, mock transfected (only lipofectamine) or transfected with the NFL overexpression vector; IP buffer 50 mM Tris pH 7.4, 150 mM NaCl, 1 % Triton X-100, 2 mM EDTA; overnight at 4 °C; blots for stathmin, Stat3 and NFL; IgG control
T2 sequence: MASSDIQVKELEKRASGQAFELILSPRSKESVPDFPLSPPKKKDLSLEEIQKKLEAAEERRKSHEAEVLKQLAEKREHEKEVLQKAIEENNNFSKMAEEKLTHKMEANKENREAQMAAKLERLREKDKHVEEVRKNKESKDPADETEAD

**Q.** Which binding [1] does the source give for “signal transducer and activator of transcription-3 (from UniProt P42227 1-770)” here?
**A.** The binding was “binds”.

**Q.** For Stat3 (from UniProt P42227 1-770), which binding [2] is on record?
**A.** The binding was “binds”.

B1: neurofilament-light chain (protein, UniProt P08551 1-543)
chain: MSSFGYDPYFSTSYKRRYVETPRVHISSVRSGYSTARSAYSSYSAPVSSSLSVRRSYSSSSGSLMPSLENLDLSQVAAISNDLKSIRTQEKAQLQDLNDRFASFIERVHELEQQNKVLEAELLVLRQKHSEPSRFRALYEQEIRDLRLAAEDATNEKQALQGEREGLEETLRNLQARYEEEVLSREDAEGRLMEARKGADEAALARAELEKRIDSLMDEIAFLKKVHEEEIAELQAQIQYAQISVEMDVSSKPDLSAALKDIRAQYEKLAAKNMQNAEEWFKSRFTVLTESAAKNTDAVRAAKDEVSESRRLLKAKTLEIEACRGMNEALEKQLQELEDKQNADISAMQDTINKLENELRSTKSEMARYLKEYQDLLNVKMALDIEIAAYRKLLEGEETRLSFTSVGSITSGYSQSSQVFGRSAYSGLQSSSYLMSARSFPAYYTSHVQEEQTEVEETIEATKAEEAKDEPPSEGEAEEEEKEKEEGEEEEGAEEEEAAKDESEDTKEEEEGGEGEEEDTKESEEEEKKEESAGEEQVAKKKD
**Q.** For B1, which binding [2] is on record?
**A.** Its binding is “binds”.

**Q.** And the binding [1]?
**A.** Its binding is “binds”.

B2: NFL (overexpressed) (protein, UniProt P08551 1-543)
chain: MSSFGYDPYFSTSYKRRYVETPRVHISSVRSGYSTARSAYSSYSAPVSSSLSVRRSYSSSSGSLMPSLENLDLSQVAAISNDLKSIRTQEKAQLQDLNDRFASFIERVHELEQQNKVLEAELLVLRQKHSEPSRFRALYEQEIRDLRLAAEDATNEKQALQGEREGLEETLRNLQARYEEEVLSREDAEGRLMEARKGADEAALARAELEKRIDSLMDEIAFLKKVHEEEIAELQAQIQYAQISVEMDVSSKPDLSAALKDIRAQYEKLAAKNMQNAEEWFKSRFTVLTESAAKNTDAVRAAKDEVSESRRLLKAKTLEIEACRGMNEALEKQLQELEDKQNADISAMQDTINKLENELRSTKSEMARYLKEYQDLLNVKMALDIEIAAYRKLLEGEETRLSFTSVGSITSGYSQSSQVFGRSAYSGLQSSSYLMSARSFPAYYTSHVQEEQTEVEETIEATKAEEAKDEPPSEGEAEEEEKEKEEGEEEEGAEEEEAAKDESEDTKEEEEGGEGEEEDTKESEEEEKKEESAGEEQVAKKKD
**Q.** B2 was tested. Which binding [2] did it give?
**A.** The binding was “binds”.
